Results reported in PubChem BioAssay AID2417 (National Center for Advancing Translational Sciences (NCATS), 2010).
The campaign covered roughly 140,000 compounds. About 4,300 (3.1%) were called active. The inconclusive results got no clear call from the source; some entries with a clear call stand among them for comparison.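 How the source made its calls: active means readout at or below -70, meaning at least 70% loss of cells showing the perinucleolar compartment, a nuclear body marking cancer cells; inconclusive means readout between -30 and a set limit; inactive means the rest.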

Experiment: High Content Assay for Compounds that inhibit the Assembly of the Perinucleolar Compartment;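 further: plate controls were DMSO wells for no effect and camptothecin positive control wells for full effect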
Details: PC3M PTB-GFP, PNC prevalence imaging, 16 h; at 10 µM; hits give low values
Procedure, shortened: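 Read-out is percentage of cells bearing a perinucleolar compartment, from automated 20x imaging of fixed, Hoechst-stained PC3M PTB-GFP cells. Cells were seeded 4 h, then exposed 16 h to compound (23 nl of library stock) in duplicate plates.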
With `CCCCCCC(=O)N/N=C/c1ccco1` the activity change (PNC), negative = inhibition was inconclusive: -35.2%.
In the case of `COc1ccc(OC)c(/C=N/NC(=O)c2ccc(Cn3cc([N+](=O)[O-])cn3)o2)c1`, the activity change (PNC), negative = inhibition is reported as inconclusive: -34.2%.
With `Cc1nnsc1C(=O)NC(C)C12CC3CC(CC(C3)C1)C2` (stereo unspecified) the activity change (PNC), negative = inhibition was inactive: 8.82%.
With `O=C(Cn1nnc(-c2ccc(Cl)cc2)n1)NC1CC2CCC1C2` (stereo unspecified) the activity change (PNC), negative = inhibition was inconclusive: -56.7%.
With `NC(=S)n1[nH]c(-c2ccc([N+](=O)[O-])cc2)c(N=Nc2ccc(O)cc2)c1=O` the activity change (PNC), negative = inhibition was inactive: -0.294%.
With `CCN(CC)S(=O)(=O)c1ccc(-c2nnc(SCC(=O)c3ccc(OC)cc3)o2)cc1` the activity change (PNC), negative = inhibition was inconclusive: -31.4%.
With `CC1(C)OC(=O)N(Cc2ccco2)C1(C)O` (stereo unspecified) the activity change (PNC), negative = inhibition was inactive: -5.69%.
With `CCCNS(=O)(=O)c1ccc(CCC(=O)N2CCOCC2)cc1` the activity change (PNC), negative = inhibition was inactive: 6.98%.
For `COc1ccc(CCNC(=O)C2CC(=O)N(c3ccc(F)cc3)C2)cc1OC` (stereo unspecified), the activity change (PNC), negative = inhibition was inactive: 9.05%.
For `CCCn1c(SCC(=O)Nc2cccc(NC(C)=O)c2)nnc1C(C)C`, the activity change (PNC), negative = inhibition was inactive: 28.7%.
For `CCOc1ccc(NC(=S)Nc2cccc3cnccc23)cc1`, the activity change (PNC), negative = inhibition was inactive: 84.2%.
For `C/C(=N\NC(=O)c1cc(C(C)C)[nH]n1)c1ccco1`, the activity change (PNC), negative = inhibition was inactive: 4.93%.
In the case of `O=[N+]([O-])c1ccc(Cl)c(/C=N/N2CCN(Cc3ccccc3Cl)CC2)c1`, the activity change (PNC), negative = inhibition is reported as inconclusive: -42.2%.
In the case of `COc1ccc(C)cc1NC(=O)C1CCCN1S(=O)(=O)c1ccc2c(c1)CCC(=O)N2` (stereo unspecified), the activity change (PNC), negative = inhibition is reported as inconclusive: -32.2%.
For `Cc1n[nH]c(C)c1CCCOc1ccccc1`, the activity change (PNC), negative = inhibition was inconclusive: -73.9%.
In the case of `CCOc1ccc2cc(C#N)c(SCC(=O)N3CCC(C)CC3)nc2c1`, the activity change (PNC), negative = inhibition is reported as inactive: 32.2%.
With `CCOC(=O)CCCNC(=O)CCCNC(=O)C(c1ccccc1)c1ccccc1` the activity change (PNC), negative = inhibition was inconclusive: -32.9%.
With `CC1=C(C(=O)OC(C)(C)C)C(c2cccs2)NC(=O)N1` (stereo unspecified) the activity change (PNC), negative = inhibition was active: -95%.
With `C/C(=N\NC(=S)Nc1ccc(F)cc1)C1CC1` the activity change (PNC), negative = inhibition was inconclusive: -30.3%.
With `COc1ccccc1C(=O)Nc1ccc2c(c1)nc1n2CCSC1` the activity change (PNC), negative = inhibition was inconclusive: -45%.
In the case of `COc1ccc(CCNC2CCN(C)CC2)cc1OC`, the activity change (PNC), negative = inhibition is reported as inconclusive: -34.5%.
With `Cc1cc2cc(OCC(=O)O)ccc2n1C` the activity change (PNC), negative = inhibition was active: -113%.
For `CCCCN(C(=O)CC(c1ccccc1)c1ccccc1)c1c(N)n(CCC)c(=O)[nH]c1=O`, the activity change (PNC), negative = inhibition was inconclusive: -35.3%.
With `O=c1c2[nH]c3ccccc3c2ncn1CCN1CCOCC1` the activity change (PNC), negative = inhibition was inconclusive: -67.4%.
With `Cc1cc(NC(=O)c2ccc(C)s2)n(-c2ccccc2)n1` the activity change (PNC), negative = inhibition was inconclusive: -73.8%.
With `Cc1ccc(S(=O)(=O)N/N=C\c2cc3c(cc2[N+](=O)[O-])OCO3)cc1` the activity change (PNC), negative = inhibition was inconclusive: -42.8%.
With `Cc1sc2nc(SCc3nc(-c4ccccc4)no3)n(-c3ccccc3)c(=O)c2c1C` the activity change (PNC), negative = inhibition was inconclusive: -49.4%.
For `Cc1cc(/C=N/NC(=O)c2nn(C)cc2Cl)c(C)n1-c1cccc(Br)c1`, the activity change (PNC), negative = inhibition was inactive: 11.1%.
For `COc1ccc(S(=O)(=O)Nc2cc(Cl)ccc2OC)cc1`, the activity change (PNC), negative = inhibition was inconclusive: -76.2%.
In the case of `COC(=O)c1ccc(C(C(=O)NC2CCCCC2)N(Cc2ccc(F)cc2)C(=O)Cc2cccs2)cc1` (stereo unspecified), the activity change (PNC), negative = inhibition is reported as inconclusive: -44%.
With `NC(=O)c1ccccc1N=Cc1ccccn1` the activity change (PNC), negative = inhibition was inconclusive: -39.2%.
With `CCCCOc1ccc(Cl)cc1CSc1nnc(C)n1N` the activity change (PNC), negative = inhibition was active: -97.1%.
With `O=[N+]([O-])c1ccc(C(=S)N2CCN(Cc3ccccc3)CC2)cc1` the activity change (PNC), negative = inhibition was inactive: -26.8%.
For `Cc1cccc(C)c1N=Cc1c(O)n(-c2nccs2)c(=O)c2ccccc12`, the activity change (PNC), negative = inhibition was inconclusive: -55.4%.
With `COC(=O)c1cc(=O)nc2sccn12` the activity change (PNC), negative = inhibition was inconclusive: -41.6%.
In the case of `COc1ccc(Cl)cc1C(=O)n1nc(C)cc1C`, the activity change (PNC), negative = inhibition is reported as inconclusive: -31%.
For `Cc1cc(C(=O)COC(=O)c2ccc(N)c([N+](=O)[O-])c2)c(C)n1-c1ccc2c(c1)OCO2`, the activity change (PNC), negative = inhibition was inconclusive: -53.7%.
For `O=C(NCC1CCCO1)c1cc2c(s1)CS(=O)(=O)C2` (stereo unspecified), the activity change (PNC), negative = inhibition was inconclusive: -45.1%.
In the case of `CN(CCCCCNC(=O)/C=N/O)Cc1ccccc1`, the activity change (PNC), negative = inhibition is reported as inconclusive: -32%.
For `O=C(O)CCC(=O)Nc1ccccc1C(=O)NCc1ccco1`, the activity change (PNC), negative = inhibition was inconclusive: -34.3%.
With `C=CCc1ccccc1OCC(O)CN(CC)CC` (stereo unspecified) the activity change (PNC), negative = inhibition was inactive: 3.24%.
In the case of `O=C(CCCCCNc1nc(=S)[nH]c2ccccc12)N1CCN(c2ccccn2)CC1`, the activity change (PNC), negative = inhibition is reported as inconclusive: -34.3%.
In the case of `COc1cc(CN2CCN(c3cccc(Cl)c3)CC2)cc(OC)c1OC`, the activity change (PNC), negative = inhibition is reported as inconclusive: -33.7%.
For `COCCn1cc(C(=O)c2ccccc2OCC(=O)Nc2cc(C)on2)cc(C#N)c1=O`, the activity change (PNC), negative = inhibition was inconclusive: -61.8%.
With `Cc1cc(C)nc(SCCN2CCOCC2)n1` the activity change (PNC), negative = inhibition was inactive: 12.9%.
In the case of `CN1CCN(C(=O)CN(c2cccc(Cl)c2)S(=O)(=O)c2ccccc2)CC1`, the activity change (PNC), negative = inhibition is reported as inactive: 14.8%.
